In experiment [1] the target is T1, PEM peptide (human).
T1 peptide: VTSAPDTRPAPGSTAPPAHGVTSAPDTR
Nature of the experiment: phage ELISA on PEM. Background: In an ELISA, binding on a coated surface is turned into a signal by an enzyme label.

By UniProt entry, the sequences of proteins in these tests, tags left out.
UniProt Q04609: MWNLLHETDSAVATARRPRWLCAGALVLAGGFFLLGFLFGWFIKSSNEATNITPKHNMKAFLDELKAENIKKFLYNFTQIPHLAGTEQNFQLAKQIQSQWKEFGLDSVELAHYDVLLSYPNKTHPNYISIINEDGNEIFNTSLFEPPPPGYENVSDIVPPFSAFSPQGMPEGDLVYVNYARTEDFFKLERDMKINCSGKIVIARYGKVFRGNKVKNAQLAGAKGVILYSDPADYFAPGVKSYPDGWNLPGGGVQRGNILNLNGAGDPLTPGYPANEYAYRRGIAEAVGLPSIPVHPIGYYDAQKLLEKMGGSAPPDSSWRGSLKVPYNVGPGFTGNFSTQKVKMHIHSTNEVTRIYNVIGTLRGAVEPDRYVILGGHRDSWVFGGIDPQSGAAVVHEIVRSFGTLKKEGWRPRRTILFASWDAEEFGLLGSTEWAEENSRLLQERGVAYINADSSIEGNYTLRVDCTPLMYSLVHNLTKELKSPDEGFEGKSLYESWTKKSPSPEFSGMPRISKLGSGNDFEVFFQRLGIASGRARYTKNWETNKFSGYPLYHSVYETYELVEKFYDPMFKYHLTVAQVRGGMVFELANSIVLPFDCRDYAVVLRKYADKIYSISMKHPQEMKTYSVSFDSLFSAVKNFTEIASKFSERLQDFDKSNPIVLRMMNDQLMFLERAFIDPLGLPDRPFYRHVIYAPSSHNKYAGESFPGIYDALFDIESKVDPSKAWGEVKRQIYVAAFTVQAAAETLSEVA

Experiment [2] deals with native 7E11-C5 antigen in LNCaP lysates (Homo sapiens, UniProt Q04609). Nature of the experiment: sandwich assay, abtide coated, LNCaP lysate captured, biotinylated 7E11-C5 as detector.
Experiment [3] addresses T1, PEM peptide. Nature of the experiment: phage panning on PEM peptide, R26 library, acid eluted. The method, then:
A peptide comprising this sequence was synthesized and used to isolate abtides from TSAR peptide libraries by methods analogous to those described above. In these experiments, the specific TSAR libraries used were R26, D38 and DC43. See FIGS. 10-12 for description of these libraries. Phage bound to PEM were eluted by either standard acid elution methods, stringent acid elution methods where phage were incubated with the PEM peptide for only 10 minutes prior to washing and elution, or were eluted using excess PEM peptide. Phage from each library were isolated that express peptides capable of binding to PEM.

These are yes or no findings as the source states them, for the method shown. Some results given as binding are weak or reduced against the parent protein; the word gives no strength. Where no end group is shown, it is not given here.

Turning to GPQGSEHQCCSGHWGLKFPGCGNGPICNNFTALRGASRKNGP [E62], the binding result with PEM peptide [1] is “binds”.

B1: 7E11-C5 abtide clone 14 (peptide)
peptide: GIINANDPLPFWFMSPYTPGPAPIDINASRALVSNESG
notes: tested afterwards as synthetic 38-residue peptide (dot blot, ELISA, sandwich assay)
With B1, the binding result in experiment [2] is given as “binds”. For the molecule SASLWDALGGWTTSAVPSYPRPHQTPGR [A5], the binding result with PEM peptide [3] is “binds”. Turning to GPLLPGEAAVHGARGLMRSGCGNGPTWNRLTAACRDSRNKGP [E44], the binding entry with PEM peptide [1] is listed as “binds”.

The record behind these values is patent US20040229289A1, “Antigen binding peptides (abtides) from peptide libraries” (Cytogen Corporation, priority 1994, published 2004).
